HELM strings list residues between dots; [ac] is acetyl, [am] amide, other brackets name non-standard units.
Assay: general procedure: solution-phase peptide synthesis; TBTU, DIEA (PyBOP for hindered coupling)

PEPTIDE1{[ac].L.[dF].[5'(R)-(MOM)GlcTSPro].V.[NMe2]}$$$$V2.0
step yield (coupling step, on tripeptide 2-9): 92%

PEPTIDE1{[ac].L.[dF].[5'(R)-GlcTSPro].V.[NMe2]}$$$$V2.0
step yield (late stage modification step, on 2-11): 90%

PEPTIDE1{[ac].L.[dF].[5'(S)-(MOM)GlcTSPro].V.[NMe2]}$$$$V2.0
difficulty met (whole synthesis, scale of the general procedure 0.03 mmol): In this case, a low yield for tripeptide 2-10 was obtained and the dipeptide 2-8 was recovered in 45% yield.

From US20100256333A1 (UNIVERSITY OF MANITOBA, priority 2009, published 2010)
